Assay results: article PMC8883701
Substitutions are numbered along the chain they refer to. Results are given in words; binding and its absence hold for the method and conditions named. In cells and extracts the contact can be indirect. Some entries that bind do so weakly or less than the wild type. For some of these results: Tags and fused reporters may be left off the sequences shown.

Protein sequences, listed by entry. Tags and fused reporters are not part of them. Lines headed by an entry give the natural chain unless they say otherwise; changes in a name come on top. Residues count along the entry.
UniProt P09874: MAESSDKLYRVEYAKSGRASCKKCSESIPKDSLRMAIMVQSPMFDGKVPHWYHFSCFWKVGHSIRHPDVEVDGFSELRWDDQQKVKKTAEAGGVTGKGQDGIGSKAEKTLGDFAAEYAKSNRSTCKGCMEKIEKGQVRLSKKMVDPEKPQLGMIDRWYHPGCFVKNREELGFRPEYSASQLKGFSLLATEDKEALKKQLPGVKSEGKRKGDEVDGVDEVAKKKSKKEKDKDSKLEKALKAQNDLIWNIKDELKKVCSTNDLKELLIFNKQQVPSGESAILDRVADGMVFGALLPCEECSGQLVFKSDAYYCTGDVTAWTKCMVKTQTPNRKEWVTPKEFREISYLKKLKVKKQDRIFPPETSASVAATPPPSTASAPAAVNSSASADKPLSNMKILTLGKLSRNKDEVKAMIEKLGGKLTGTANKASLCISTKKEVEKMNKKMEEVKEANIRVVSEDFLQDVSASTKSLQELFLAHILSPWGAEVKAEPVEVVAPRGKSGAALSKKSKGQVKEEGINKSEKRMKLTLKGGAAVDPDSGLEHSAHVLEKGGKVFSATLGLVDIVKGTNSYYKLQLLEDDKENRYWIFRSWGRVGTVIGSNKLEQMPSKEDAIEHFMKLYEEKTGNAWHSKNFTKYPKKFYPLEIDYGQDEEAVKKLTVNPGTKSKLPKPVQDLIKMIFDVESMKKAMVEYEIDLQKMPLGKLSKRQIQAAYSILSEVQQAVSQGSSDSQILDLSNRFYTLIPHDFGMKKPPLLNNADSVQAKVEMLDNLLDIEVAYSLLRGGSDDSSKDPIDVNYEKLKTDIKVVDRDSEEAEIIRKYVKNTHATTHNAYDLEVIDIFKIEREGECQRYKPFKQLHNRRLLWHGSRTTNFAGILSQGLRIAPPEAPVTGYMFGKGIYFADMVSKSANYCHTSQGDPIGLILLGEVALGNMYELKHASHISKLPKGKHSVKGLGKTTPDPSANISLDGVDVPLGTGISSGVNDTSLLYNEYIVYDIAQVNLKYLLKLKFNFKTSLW
UniProt P02545, residues 1-646: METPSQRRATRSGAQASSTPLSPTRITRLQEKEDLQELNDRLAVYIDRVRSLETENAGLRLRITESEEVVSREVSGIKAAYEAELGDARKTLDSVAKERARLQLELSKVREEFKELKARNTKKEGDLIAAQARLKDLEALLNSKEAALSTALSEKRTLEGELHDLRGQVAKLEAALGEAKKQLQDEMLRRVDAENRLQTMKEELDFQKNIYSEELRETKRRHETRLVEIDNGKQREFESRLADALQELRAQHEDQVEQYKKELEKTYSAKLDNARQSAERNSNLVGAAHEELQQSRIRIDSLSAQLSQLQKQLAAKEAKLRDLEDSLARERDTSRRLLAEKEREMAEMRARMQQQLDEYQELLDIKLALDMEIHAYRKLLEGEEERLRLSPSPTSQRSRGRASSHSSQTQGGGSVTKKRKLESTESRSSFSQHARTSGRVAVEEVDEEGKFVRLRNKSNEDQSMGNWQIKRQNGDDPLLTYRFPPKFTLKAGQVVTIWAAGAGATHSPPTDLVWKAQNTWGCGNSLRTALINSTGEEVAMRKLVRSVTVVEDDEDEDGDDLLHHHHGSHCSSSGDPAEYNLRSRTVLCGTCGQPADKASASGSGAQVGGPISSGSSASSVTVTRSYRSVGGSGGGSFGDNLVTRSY

How the values were obtained:
[1] = target: T1, FLAG-GFP-tagged LAP2α C (C-terminus, 415-695) (UniProt P42166); assay: co-IP; whole-cell lysates of HeLa cells expressing FLAG-GFP-tagged LAP2α truncation or deletion mutants
T1 sequence: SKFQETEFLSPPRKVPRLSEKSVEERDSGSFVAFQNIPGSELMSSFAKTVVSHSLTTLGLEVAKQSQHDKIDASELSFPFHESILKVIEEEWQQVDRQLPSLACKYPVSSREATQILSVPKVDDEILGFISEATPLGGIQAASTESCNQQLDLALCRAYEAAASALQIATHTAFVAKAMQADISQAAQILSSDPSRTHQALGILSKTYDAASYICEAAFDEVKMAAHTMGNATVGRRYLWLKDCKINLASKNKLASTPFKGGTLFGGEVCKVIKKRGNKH

FLAG-tagged LAP2α/2RA = target: T2, FLAG-tagged LAP2α/2RA (UniProt P42166); assay: co-IP; FLAG-tagged LAP2α variants transfected into HeLa cells
T2 sequence: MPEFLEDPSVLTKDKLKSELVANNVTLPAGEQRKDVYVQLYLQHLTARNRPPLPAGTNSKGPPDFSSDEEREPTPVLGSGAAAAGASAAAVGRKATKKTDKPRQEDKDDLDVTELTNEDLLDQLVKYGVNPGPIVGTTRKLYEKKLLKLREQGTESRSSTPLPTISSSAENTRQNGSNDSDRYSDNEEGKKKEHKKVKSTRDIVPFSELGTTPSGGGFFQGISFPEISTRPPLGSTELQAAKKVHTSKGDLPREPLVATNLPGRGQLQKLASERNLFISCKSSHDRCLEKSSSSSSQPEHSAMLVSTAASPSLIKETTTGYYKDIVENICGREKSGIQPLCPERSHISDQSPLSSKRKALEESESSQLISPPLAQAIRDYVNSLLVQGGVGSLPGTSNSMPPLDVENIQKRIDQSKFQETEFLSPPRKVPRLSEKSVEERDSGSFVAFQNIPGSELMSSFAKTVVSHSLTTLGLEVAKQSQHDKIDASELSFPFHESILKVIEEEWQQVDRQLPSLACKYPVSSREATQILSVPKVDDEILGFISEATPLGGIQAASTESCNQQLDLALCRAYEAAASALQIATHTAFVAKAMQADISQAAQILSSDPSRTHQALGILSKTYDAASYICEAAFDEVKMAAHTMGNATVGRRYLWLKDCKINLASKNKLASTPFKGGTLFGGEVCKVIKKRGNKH

FLAG-tagged LAP2α/2RQ = target: T3, FLAG-tagged LAP2α/2RQ (UniProt P42166); assay: as above
T3 sequence: T2 sequence with A86Q, A88Q

FLAG-tagged LAP2α/2RE = target: T4, FLAG-tagged LAP2α/2RE (UniProt P42166); assay: as above
T4 sequence: T2 sequence with A86E, A88E

[2] = target: wild type PARP1 (PARP1/wt) (UniProt P09874); assay: co-IP; PARP1/wt and PARP1/E988K, Figure S3N; cells and constructs not shown
[3] = target: PARylation activity-deficient PARP1 (PARP1/E988K) (UniProt P09874); assay: as above

Measured: binding

Lamin A/C (from UniProt P02545 1-646)
binds: [1] | FLAG-tagged LAP2α/2RA | FLAG-tagged LAP2α/2RQ | FLAG-tagged LAP2α/2RE

Lamin-associated polypeptide 2 alpha (LAP2α) (from UniProt P42166 1-694)
binds: [2] | [3]

B1: retinoblastoma protein (pRb) (protein, UniProt P06400 1-928)
chain: MPPKTPRKTAATAAAAAAEPPAPPPPPPPEEDPEQDSGPEDLPLVRLEFEETEEPDFTALCQKLKIPDHVRERAWLTWEKVSSVDGVLGGYIQKKKELWGICIFIAAVDLDEMSFTFTELQKNIEISVHKFFNLLKEIDTSTKVDNAMSRLLKKYDVLFALFSKLERTCELIYLTQPSSSISTEINSALVLKVSWITFLLAKGEVLQMEDDLVISFQLMLCVLDYFIKLSPPMLLKEPYKTAVIPINGSPRTPRRGQNRSARIAKQLENDTRIIEVLCKEHECNIDEVKNVYFKNFIPFMNSLGLVTSNGLPEVENLSKRYEEIYLKNKDLDARLFLDHDKTLQTDSIDSFETQRTPRKSNLDEEVNVIPPHTPVRTVMNTIQQLMMILNSASDQPSENLISYFNNCTVNPKESILKRVKDIGYIFKEKFAKAVGQGCVEIGSQRYKLGVRLYYRVMESMLKSEEERLSIQNFSKLLNDNIFHMSLLACALEVVMATYSRSTSQNLDSGTDLSFPWILNVLNLKAFDFYKVIESFIKAEGNLTREMIKHLERCEHRIMESLAWLSDSPLFDLIKQSKDREGPTDHLESACPLNLPLQNNHTAADMYLSPVRSPKKKGSTTRVNSTANAETQATSAFQTQKPLKSTSLSLFYKKVYRLAYLRLNTLCERLLSEHPELEHIIWTLFQHTLQNEYELMRDRHLDQIMMCSMYGICKVKNIDLKFKIIVTAYKDLPHAVQETFKRVLIKEEEYDSIIVFYNSVFMQRLKTNILQYASTRPPTLSPIPHIPRSPYKFPSSPLRIPGGNIYISPLKSPYKISEGLPTPTKMTPRSRILVSIGESFGTSEKFQKINQMVCNSDRVLKRSAEGSNPPKPLKKLRFDIEGSDEADGSKHLPGESKFQQKLAEMTSTRTRMQKQKMNDSMDTSNKEEK
binds: [1] | FLAG-tagged LAP2α/2RA | FLAG-tagged LAP2α/2RQ | FLAG-tagged LAP2α/2RE
